Earlier results as cited in patent US20140066461A1, “METHODS FOR DIAGNOSING AND TREATING SCHIZOPHRENIA” (priority 2012, published 2014).
For at least one compound, name, drawing or mass did not settle the structure.

Columns and labels:
[1] = test system: primate; settings: primate model
[2] = test system: rats

SMILES: CN1CCN(C2=Nc3cc(Cl)ccc3Nc3ccccc32)CC1 [clozapine]
- PCP-induced cognitive impairments [1]: reversed
- effects of amphetamine on attention [2]: reverse the effects of amphetamine on attention in rats
